Measurements reported in PubChem BioAssay AID504764 (Drosophila RNAi Screening Center, 2011).

Screen: 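Genes whose knock-down alters Notch-dependent transcription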 (primary screen)
System: Drosophila Kc167 cells
Knock-down reagent: long dsRNA against Drosophila genes
Duration: about 5 days (4 days dsRNA, then 24 h after transfection)
Challenge: transfection of constitutively active membrane-tethered Notch lacking the extracellular domain, read 24 h later
Measured: 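Firefly luciferase from an E(spl)m3 reporter with active Notch, plus control-promoter and uninduced reporter wells for normalisation; unnormalised counts, duplicate wells a and b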
Direction: induced reporter light, run 1, well a and induced reporter light, run 1, well b: higher = more light from the Notch target reporter with active Notch; control promoter light, run 1, well a and control promoter light, run 1, well b: higher = more light from the viral control promoter (cell number, transfection, viability); uninduced reporter light, run 1, well a: higher = more light from the Notch target reporter without active Notch
Active means: 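Wells with low control signal or poorly matching duplicates excluded; duplicates averaged; per source plate, z beyond ±2 for induced/control log2 ratio or beyond ±1.8 for induced/uninduced marks a hit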
Calls: active = modifier hit (raised or lowered Notch signal); inactive = not a hit
In all, the deposit lists about 22,000 reagents; shown is an unselected part of those that have a named target and a result. In the full data, 403 (1.9%) got an active call. 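Unnormalised raw counts per well; ratio z-scores behind the hit calls and whether each hit raises or lowers signal are not deposited.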 The numbers tell different reagents against one gene apart. A plus sign joins genes that one reagent is predicted to hit. Not stated in the record: the amount of reagent.

CG15209 — induced reporter light, run 1, well a: 1.41e5; induced reporter light, run 1, well b: 1.22e5; control promoter light, run 1, well a: 1.64e5; control promoter light, run 1, well b: 1.57e5; uninduced reporter light, run 1, well a: 9035; call: inactive
CG32037 — induced reporter light, run 1, well a: 1.80e5; induced reporter light, run 1, well b: 2.17e5; control promoter light, run 1, well a: 2.42e5; control promoter light, run 1, well b: 2.12e5; uninduced reporter light, run 1, well a: 11935; call: inactive
robl22E — induced reporter light, run 1, well a: 1.07e5; induced reporter light, run 1, well b: 99660; control promoter light, run 1, well a: 1.05e5; control promoter light, run 1, well b: 50400; uninduced reporter light, run 1, well a: 9495; call: inactive
Pp1alpha-96A — induced reporter light, run 1, well a: 1.82e5; induced reporter light, run 1, well b: 2.20e5; control promoter light, run 1, well a: 2.23e5; control promoter light, run 1, well b: 2.26e5; uninduced reporter light, run 1, well a: 15185; call: inactive
AdamTS-A #1 — induced reporter light, run 1, well a: 1.21e5; induced reporter light, run 1, well b: 1.31e5; control promoter light, run 1, well a: 82585; control promoter light, run 1, well b: 78780; uninduced reporter light, run 1, well a: 11095; call: inactive
AdamTS-A #2 — induced reporter light, run 1, well a: 2.80e5; induced reporter light, run 1, well b: 2.89e5; control promoter light, run 1, well a: 2.21e5; control promoter light, run 1, well b: 2.20e5; uninduced reporter light, run 1, well a: 17250; call: inactive
CG9673 — induced reporter light, run 1, well a: 1.14e5; induced reporter light, run 1, well b: 87810; control promoter light, run 1, well a: 1.33e5; control promoter light, run 1, well b: 1.01e5; uninduced reporter light, run 1, well a: 8405; call: inactive
ND-13B — induced reporter light, run 1, well a: 1.37e5; induced reporter light, run 1, well b: 1.45e5; control promoter light, run 1, well a: 1.72e5; control promoter light, run 1, well b: 1.29e5; uninduced reporter light, run 1, well a: 4330; call: active
wcy — induced reporter light, run 1, well a: 92195; induced reporter light, run 1, well b: 75525; control promoter light, run 1, well a: 62945; control promoter light, run 1, well b: 46025; uninduced reporter light, run 1, well a: 5582; call: inactive
CG13159 — induced reporter light, run 1, well a: 92940; induced reporter light, run 1, well b: 98790; control promoter light, run 1, well a: 1.52e5; control promoter light, run 1, well b: 1.30e5; uninduced reporter light, run 1, well a: 9355; call: inactive
CAP #1 — induced reporter light, run 1, well a: 1.68e5; induced reporter light, run 1, well b: 2.38e5; control promoter light, run 1, well a: 1.74e5; control promoter light, run 1, well b: 2.10e5; uninduced reporter light, run 1, well a: 16278; call: inactive
CAP #2 — induced reporter light, run 1, well a: 2.05e5; induced reporter light, run 1, well b: 2.00e5; control promoter light, run 1, well a: 2.20e5; control promoter light, run 1, well b: 1.87e5; uninduced reporter light, run 1, well a: 16600; call: inactive
CAP #3 — induced reporter light, run 1, well a: 1.91e5; induced reporter light, run 1, well b: 1.77e5; control promoter light, run 1, well a: 1.89e5; control promoter light, run 1, well b: 1.82e5; uninduced reporter light, run 1, well a: 14305; call: inactive
CAP #4 — induced reporter light, run 1, well a: 1.93e5; induced reporter light, run 1, well b: 2.21e5; control promoter light, run 1, well a: 2.43e5; control promoter light, run 1, well b: 2.41e5; uninduced reporter light, run 1, well a: 17450; call: inactive
CAP #5 — induced reporter light, run 1, well a: 2.17e5; induced reporter light, run 1, well b: 2.10e5; control promoter light, run 1, well a: 2.82e5; control promoter light, run 1, well b: 2.58e5; uninduced reporter light, run 1, well a: 19282; call: inactive
TrissinR #1 — induced reporter light, run 1, well a: 1.36e5; induced reporter light, run 1, well b: 1.17e5; control promoter light, run 1, well a: 1.92e5; control promoter light, run 1, well b: 1.99e5; uninduced reporter light, run 1, well a: 9425; call: inactive
TrissinR #2 — induced reporter light, run 1, well a: 99675; induced reporter light, run 1, well b: 92860; control promoter light, run 1, well a: 1.42e5; control promoter light, run 1, well b: 1.55e5; uninduced reporter light, run 1, well a: 8120; call: inactive
TrissinR #3 — induced reporter light, run 1, well a: 1.86e5; induced reporter light, run 1, well b: 1.47e5; control promoter light, run 1, well a: 1.74e5; control promoter light, run 1, well b: 1.49e5; uninduced reporter light, run 1, well a: 10595; call: inactive
del — induced reporter light, run 1, well a: 1.74e5; induced reporter light, run 1, well b: 1.89e5; control promoter light, run 1, well a: 1.72e5; control promoter light, run 1, well b: 2.03e5; uninduced reporter light, run 1, well a: 17500; call: inactive
Ugt36A1 + CG15418 — induced reporter light, run 1, well a: 1.64e5; induced reporter light, run 1, well b: 1.69e5; control promoter light, run 1, well a: 1.98e5; control promoter light, run 1, well b: 1.76e5; uninduced reporter light, run 1, well a: 11185; call: inactive
ATPsynB — induced reporter light, run 1, well a: 46215; induced reporter light, run 1, well b: 44585; control promoter light, run 1, well a: 62485; control promoter light, run 1, well b: 34375; uninduced reporter light, run 1, well a: 4315; call: active
CG6700 — induced reporter light, run 1, well a: 2.11e5; induced reporter light, run 1, well b: 1.76e5; control promoter light, run 1, well a: 1.48e5; control promoter light, run 1, well b: 1.90e5; uninduced reporter light, run 1, well a: 16895; call: inactive
Crk — induced reporter light, run 1, well a: 1.64e5; induced reporter light, run 1, well b: 2.25e5; control promoter light, run 1, well a: 2.70e5; control promoter light, run 1, well b: 2.59e5; uninduced reporter light, run 1, well a: 13260; call: inactive
CG17104 — induced reporter light, run 1, well a: 2.71e5; induced reporter light, run 1, well b: 3.51e5; control promoter light, run 1, well a: 3.35e5; control promoter light, run 1, well b: 3.22e5; uninduced reporter light, run 1, well a: 20545; call: inactive

Active calls, among the entries above:
ND-13B — induced reporter light, run 1, well a: 1.37e5; induced reporter light, run 1, well b: 1.45e5; control promoter light, run 1, well a: 1.72e5; control promoter light, run 1, well b: 1.29e5; uninduced reporter light, run 1, well a: 4330; call: active
ATPsynB — induced reporter light, run 1, well a: 46215; induced reporter light, run 1, well b: 44585; control promoter light, run 1, well a: 62485; control promoter light, run 1, well b: 34375; uninduced reporter light, run 1, well a: 4315; call: active
